This is one part of the list. These are further read-outs of the screen, such as a control signal, another cell line or another target. No call is given for them. Most of these compounds were active or inconclusive in the main read-out, so they are no random draw. The note in brackets gives the kind of curve behind each potency; many fits are weak.
Assay: qHTS Assay for Lipid Storage Modulators in Drosophila S3 Cells;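 on cell number change: cells counted by Cell Tracker Red CMTPX staining in the red channel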
Settings: BODIPY lipid droplet fluorescence, 18-24 h; for cell number change: measured here: cell count max response, cells fed with added oleic acid
In short: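 Drosophila S3 cells got compounds at several concentrations plus oleic acid (400 uM solution). Laser-scanning cytometry with 488 nm excitation read lipid droplets at 500-530 nm and cells at 575-640 nm. Percent activity was relative to 20 uM Triacsin C.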

[1] = measured here: lipid fluorescence (Fed channel) AC50, cells fed with added oleic acid
[2] = measured here: cell number channel AC50, cells fed with added oleic acid

CC(=O)c1cccc(NC(=O)c2sc3nc4n(c(=O)c3c2C)CCCC4)c1
cell number change: -8.66%

Cc1cc(C)c(S(=O)(=O)NCC(CCC(=O)O)C(F)(F)F)c(C)c1 (stereo unspecified)
cell number change: 25.2% | AC50 [1]: 29.1 µM [rising, single point]

Cc1cc(C(F)F)n2ncc(C(=O)NCCc3ccc(Cl)cc3)c2n1
AC50 [2]: 1.16 µM [rising, partial curve] | AC50 [1]: 0.731 µM [rising, partial curve, poor fit]

Cc1cc2c(s1)c(C=O)c(C(=O)NCc1ccccc1F)n2C
cell number change: 1.91%

N#CC1=C(N)Oc2c(oc(CO)cc2=O)C1c1ccsc1 (stereo unspecified)
cell number change: 2.73% | AC50 [1]: 6.51 µM [rising, single point]

COc1ccc(-n2c(N)c(C(=O)NCc3ccco3)c3nc4ccccc4nc32)c(OC)c1
cell number change: 105% | AC50 [2]: 0.0103 µM [rising, full curve, poor fit] | AC50 [1]: 0.58 µM [rising, single point]

COc1ccc(CNC(=O)COC(=O)C2CCC(C(C)(C)C)CC2)cc1 (stereo unspecified)
cell number change: -0.4% | AC50 [1]: 5.17 µM [falling, partial curve, poor fit]

COc1ccccc1-c1cc(C(=O)NCCCn2ccnc2)no1
AC50 [1]: 1.64 µM [rising, partial curve]

Cc1sc2ccccc2[n+]1CC(=O)c1ccccc1
cell number change: 14.7% | AC50 [1]: 29.1 µM [rising, single point]

Cc1cc(C(=O)NC2CCCc3c2cnn3-c2ccccc2F)nc(C)n1 (stereo unspecified)
cell number change: -28.3% | AC50 [2]: 2.91 µM [falling, full curve, poor fit] | AC50 [1]: 2.31 µM [falling, partial curve]

COc1ccc(C)cc1NC(=O)CSc1nnc(-c2ccc(Br)cc2)o1
AC50 [1]: 29.1 µM [falling, single point]

CCc1ccccc1NC(=O)CN1CCN(CC(=O)NCc2ccc(Cl)cc2)CC1
cell number change: 1.67% | AC50 [1]: 0.651 µM [rising, single point]

C/C(=N\Nc1nnc(-c2ccccc2)c(-c2ccccc2)n1)c1cccc([N+](=O)[O-])c1
cell number change: 14.5%

CC(Sc1nnc(-c2ccccc2F)n1N)C(=O)NCC1CCCO1 (stereo unspecified)
cell number change: 75% | AC50 [2]: 0.58 µM [rising, full curve] | AC50 [1]: 6.51 µM [rising, single point]

CCOC(=O)c1cnn(-c2nc(-c3cccc(F)c3)cs2)c1C(F)(F)F
cell number change: 1.94% | AC50 [1]: 29.1 µM [rising, single point]

Cc1ccc(C2C(C(=O)c3cc4ccccc4o3)=C(O)C(=O)N2c2cc(C)on2)cc1 (stereo unspecified)
cell number change: 39.2% | AC50 [2]: 25.9 µM [rising, single point] | AC50 [1]: 29.1 µM [rising, single point]

Cn1c(=O)oc2cc(C(=O)c3ccccc3)ccc21
cell number change: 150% | AC50 [2]: 0.411 µM [rising, single point] | AC50 [1]: 0.651 µM [rising, single point]

CC(C(=O)NC(c1ccccc1)c1ccccc1)N1CCOCC1 (stereo unspecified)
cell number change: 9.21% | AC50 [1]: 5.62 µM [falling, single point]

COc1ccc2[nH]c3c(Cl)ncnc3c2c1
cell number change: -24.2% | AC50 [1]: 1.84 µM [falling, single point]

CC1(C)NC(=O)N(CCCSc2ccc(Cl)cc2)C1=O
cell number change: -72.4% | AC50 [2]: 32.6 µM [falling, single point] | AC50 [1]: 18.4 µM [falling, partial curve]

Cc1ccsc1CN(C)CC(=O)NCC(=O)Nc1ccc(F)cc1
cell number change: -13.9%

O=C(NC1CC2CCCC(C1)N2C(=O)N1CCCCC1)C1CCCCC1 (stereo unspecified)
cell number change: 1.24% | AC50 [1]: 0.731 µM [falling, full curve]

CC(=O)Nc1ccc(S(=O)(=O)N[C@@H](C)C(=O)N(C)Cc2cccs2)cc1
cell number change: -1.5% | AC50 [1]: 3.66 µM [falling, single point]

CCCN1CCN(c2nc(-c3cccs3)nc3ccccc23)CC1
cell number change: -72.8% | AC50 [2]: 29.1 µM [falling, partial curve]

O=C1c2cccc3c(N4CCCCC4)ccc(c23)C(=O)N1CCO
cell number change: -94.7% | AC50 [2]: 5.8 µM [falling, full curve] | AC50 [1]: 3.66 µM [falling, full curve]

COc1ccc(OCC(O)CNC(=O)/C=C/c2cccc([N+](=O)[O-])c2)cc1 (stereo unspecified)
cell number change: 48.9% | AC50 [2]: 29.1 µM [rising, single point] | AC50 [1]: 6.51 µM [falling, single point]

O=C(CSc1nnc2c(n1)[nH]c1ccccc12)NCc1ccco1
cell number change: -11.7% | AC50 [2]: 1.16 µM [rising, partial curve]

Cc1cc(C)nc(N/N=C2/CCCC/C2=C\c2ccccc2)n1
cell number change: -0.244% | AC50 [2]: 0.58 µM [rising, single point] | AC50 [1]: 0.58 µM [rising, single point]

COc1cccc(-c2ccc(C#N)c(SCC(=O)NCCc3ccc(Cl)cc3)n2)c1
cell number change: -28.3% | AC50 [1]: 13 µM [falling, single point]

COc1ccc(Cc2nc3ccc(C(=O)NC(C)c4cnn(C)c4)cc3o2)cc1 (stereo unspecified)
cell number change: 23.5%

O=C(NCCC1=CCCCC1)C1CCN(C(=O)c2ccc(Cl)cc2)CC1
cell number change: -19.6% | AC50 [1]: 13 µM [falling, single point]

NC(=O)CN1CCN(C(=O)NC2CCCCC2)CC1
cell number change: 28.1% | AC50 [1]: 0.291 µM [falling, full curve, poor fit]

Cc1noc(C)c1COC(=O)c1ccccc1Oc1ccccc1
AC50 [2]: 2.31 µM [rising, single point]

COc1cccc(/C=C2/NC(=O)N(CC(=O)Nc3ccc(C)cc3)C2=O)c1OCc1cccc(C(=O)O)c1
cell number change: 36.2% | AC50 [2]: 32.6 µM [rising, single point]

CCCn1c(=O)c2ccccc2n2c(SCc3nnc(-c4ccccc4Br)o3)nnc12
cell number change: -7.76% | AC50 [1]: 29.1 µM [rising, single point]

CC(C)(C)c1ccc(C(=O)Nc2ccc(CC(=O)O)cc2)o1
cell number change: 3.42% | AC50 [1]: 20.6 µM [falling, partial curve]

CCOc1ccc(-n2c(=S)sc3c(=O)[nH]c(SCC(=O)NCc4ccco4)nc32)cc1
cell number change: 46.5% | AC50 [1]: 6.51 µM [falling, single point]

COc1ccc(/C=C(\NC(=O)c2ccco2)C(=O)NCc2ccco2)cc1
cell number change: -13.2%

CCn1c2ccccc2c2cc(/C=N/n3c(C)nnc3C)ccc21
cell number change: -30.8% | AC50 [2]: 5.17 µM [falling, single point] | AC50 [1]: 6.51 µM [rising, single point]

Cn1cc(CN2CCC(n3nccc3NC(=O)CCOc3ccccc3)CC2)cn1
cell number change: -8.26% | AC50 [1]: 0.00517 µM [falling, full curve, poor fit]

COc1ccc(C(=O)Cn2c(NCCCO)nc3ccccc32)cc1OC
AC50 [1]: 29.1 µM [rising, single point]

CCOc1ccc(NC(=O)Cc2ccc(S(=O)(=O)N3CCOCC3)s2)cc1OCC
cell number change: 15.7%

Cc1ccc(C(C)C)c(OCC(O)CNC2CCCC2)c1 (stereo unspecified)
cell number change: -15%

CCn1cc([N+](=O)[O-])c(C(=O)Nc2c(C)nn(Cc3cccc(F)c3)c2C)n1
AC50 [2]: 3.66 µM [rising, single point] | AC50 [1]: 2.06 µM [rising, single point]

O=S1(=O)CC/C(=N/Nc2ccc(C(F)(F)F)cn2)c2cc(F)ccc21
cell number change: 69%

Cc1cc(C(=O)c2cnc(/N=C/N(C)C)s2)cc(C)c1O
cell number change: 6.62%

Cc1ccc(S(=O)(=O)N2CCN(C(=O)CSc3nccn3C)CC2)cc1
cell number change: -32.3% | AC50 [2]: 0.82 µM [falling, full curve, poor fit] | AC50 [1]: 0.651 µM [falling, partial curve, poor fit]

CCOC(=O)c1c(-c2ccccc2)csc1NC(=O)C(C)NCCCN1CCOCC1 (stereo unspecified)
cell number change: 17.9%

CCN(CC(=O)NCc1ccc(Cl)cc1)C(=O)CSc1ccccc1F
cell number change: -10.9% | AC50 [1]: 0.00517 µM [falling, full curve, poor fit]

CS(=O)(=O)N1CCC2(CC1)OCCN2S(=O)(=O)c1ccccc1
AC50 [2]: 1.46 µM [falling, partial curve] | AC50 [1]: 6.51 µM [falling, single point]

O=C(NC1=NCCS1)C1CC(=O)N(c2ccc(F)cc2)C1 (stereo unspecified)
cell number change: -17.8% | AC50 [1]: 20.6 µM [falling, single point]

Cn1c(CC(=O)Nc2ccccc2F)nnc1SCC(=O)Nc1nncs1
cell number change: 15.1%

COc1ccc(S(=O)(=O)NNC(=O)C23CC4CC(CC(C4)C2)C3)cc1[N+](=O)[O-]
cell number change: -11%

COc1ccc(-c2noc(COc3ccccc3OC)n2)cc1OC
AC50 [2]: 4.11 µM [rising, single point] | AC50 [1]: 1.3 µM [rising, full curve]

CS(=O)(=O)N1CCC(C(=O)NCc2ccncc2)CC1
cell number change: 0.476% | AC50 [1]: 29.1 µM [falling, partial curve]

CC(NC(=O)[C@@H](NC(=O)[C@@H]1Cc2ccccc2CN1)C(C)C)c1ccccc1 (stereo partly specified)
cell number change: 5.73% | AC50 [1]: 20.6 µM [rising, single point]

COc1ccc(NC(=O)c2ccccc2S(=O)c2ccccc2C#N)cc1 (stereo unspecified)
cell number change: 14.8% | AC50 [1]: 0.164 µM [falling, single point]

COc1ccccc1NC(=O)c1cc2c(=O)n(C)c3ccccc3c2n1C
cell number change: -6.92% | AC50 [1]: 0.651 µM [rising, full curve]

CC(=O)N1CCN(c2ccc(NCc3ccco3)cc2)CC1
cell number change: 1.02% | AC50 [1]: 0.116 µM [rising, full curve, poor fit]

S=C(c1ccc(-c2cccc(Cl)c2)o1)N1CCCCC1
cell number change: -52.8% | AC50 [2]: 29.1 µM [falling, single point]

CCn1cc(/C=C(\NC(=O)c2ccc(OC)c(OC)c2)C(=O)NCCN2CCOCC2)c2ccccc21
cell number change: -45.7% | AC50 [1]: 29.1 µM [falling, single point]
